PubChem BioAssay AID1259308 | NCATS | 2017

- Assay: 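Candidate targets for better recombinant protein yield in mammalian cells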 (primary screen)
- Cells: human HEK293 embryonic kidney cells stably expressing firefly luciferase (HEK-CMV-Luc2-Hygro)
- Reagent: single siRNA against human genes, 0.8 pmol siRNA per well
- Timing: 72 h
- Measured: 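Reporter luminescence and viable-cell signal on separate replicate plates, given as percent of non-targeting control and median/MAD z-scores, plus per-cell luciferase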
- Reading the numbers: total luciferase, z-score and total luciferase, % of control: higher = more reporter protein produced; luciferase per cell, z-score: higher = more reporter output per viable cell; viable cells, % of control: higher = more viable cells
- Call rule: 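An siRNA counts as active if its total luciferase robust z-score exceeds 3; genes with two or more such siRNAs out of three were retested with fresh siRNAs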
- Calls: active = raised luciferase; inactive = no rise
This is an unselected part of about 59,000 deposited reagents. About 1,510 of all reagents (2.6%) count as active. 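Calls use total luciferase alone and ignore viability, so some active siRNAs may act by altering cell number.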 A number with no mark means an inactive call. The numbers tell different reagents against one gene apart.

gene knocked down	siRNA no.	total luciferase, z-score	total luciferase, % of control	luciferase per cell, z-score	viable cells, % of control
HNRNPKP3	1	-0.305	75.8	0.0693	83.2
HNRNPKP3	2	-1.02	61.6	-0.95	88.4
HNRNPKP3	3	1.02	102	-0.0247	115
MEDAG	1	-0.0796	80.3	-0.165	93.7
MEDAG	2	0.897	99.7	1.31	78.9
MEDAG	3	-0.306	75.8	-0.378	93.6
DMC1	1	0.755	96.9	0.525	94.3
DMC1	2	0.14	84.7	0.625	80.3
DMC1	3	-0.105	79.8	-0.298	96.4
KLHL33	1	-0.528	71.4	-1.03	105
KLHL33	2	-0.821	65.6	-0.602	85.8
KLHL33	3	0.223	86.3	0.29	89.4
KLHL33	4	-0.728	67.4	-0.996	97.9
KLHL33	5	-0.138	79.1	1.85	54.4
KLHL33	6	0.567	93.2	0.246	97.6
SOCS5P5	1	0.617	94.2	0.586	90.2
SOCS5P5	2	1.31	108	1.08	90.9
SOCS5P5	3	0.409	90	0.343	91.9
BGLAP	1	0.241	86.7	0.367	87.9
BGLAP	2	-1.67	48.7	-0.649	64.6
BGLAP	3	-1.38	54.5	-0.981	78.9
XXYLT1	1	-1.01	61.8	-0.96	88.9
XXYLT1	2	-0.0869	80.2	-0.387	99.2
XXYLT1	3	0.986	102	0.581	97.3

Reformatted: entries from further up
gene knocked down | siRNA no. | total luciferase, z-score | total luciferase, % of control | luciferase per cell, z-score | viable cells, % of control
HNRNPKP3 | 1 | -0.305 | 75.8 | 0.0693 | 83.2
HNRNPKP3 | 2 | -1.02 | 61.6 | -0.95 | 88.4
HNRNPKP3 | 3 | 1.02 | 102 | -0.0247 | 115
MEDAG | 1 | -0.0796 | 80.3 | -0.165 | 93.7
MEDAG | 2 | 0.897 | 99.7 | 1.31 | 78.9
MEDAG | 3 | -0.306 | 75.8 | -0.378 | 93.6
DMC1 | 1 | 0.755 | 96.9 | 0.525 | 94.3
DMC1 | 2 | 0.14 | 84.7 | 0.625 | 80.3
DMC1 | 3 | -0.105 | 79.8 | -0.298 | 96.4
KLHL33 | 1 | -0.528 | 71.4 | -1.03 | 105

Continued:
gene knocked down	siRNA no.	total luciferase, z-score	total luciferase, % of control	luciferase per cell, z-score	viable cells, % of control
LOC441167 (retired record)	1	0.593	93.7	0.388	94.5
LOC441167 (retired record)	2	0.455	90.9	-0.0687	103
LOC441167 (retired record)	3	-0.561	70.7	-1.35	113
EYA1	1	-1.13	59.4	0.292	61.4
EYA1	2	0.361	89.1	0.445	88.5
EYA1	3	0.27	87.2	0.823	78.5
LINC01347	1	1.48	111	1.4	86.1
LINC01347	2	0.936	101	0.645	94.8
LINC01347	3	1.11	104	1.62	75.7
ZNF584	1	-0.899	64	0.373	64.8
ZNF584	2	0.968	101	1.08	85.1
ZNF584	3	1.5	112	1.2	91
ATG9A	1	-0.62	69.5	-0.0229	78.2
ATG9A	2	-0.919	63.6	-1.02	93
ATG9A	3	4.6 (active)	173	3.65	74.2
NEUROG1	1	-0.403	73.9	-1.14	111
NEUROG1	2	4.24 (active)	166	3.31	77.7
NEUROG1	3	-1.03	61.4	-1.28	96.2
PLEKHF2	1	0.942	101	1.64	72.9
PLEKHF2	2	0.0909	83.7	0.121	90.6
PLEKHF2	3	-0.232	77.3	-0.518	99
CARF	1	0.297	87.8	0.745	80.6
CARF	2	0.463	91.1	0.923	79.8
CARF	3	-0.351	74.9	0.584	71.8
CARF	4	0.811	98	0.773	89.3
CARF	5	1.95	121	1.57	89.2
CARF	6	1.68	115	0.559	111
ZXDA	1	1.53	112	1.28	89.5
ZXDA	2	-1.49	52.3	-0.897	73.9
ZXDA	3	0.666	95.1	0.399	95.7
DDR2	1	0.134	84.6	0.485	83.2
DDR2	2	-0.556	70.8	-0.808	97.9
DDR2	3	-0.129	79.3	-0.548	102
